Measurements as given in paper PMC7601328.

Tested on: RNA polymerase holoenzyme (beta, beta', alpha, omega, sigma) (Escherichia coli)
Assay: EMSA
Settings: 500 uM ppGpp, 50 uM ATP, 10 mM Mg acetate, heparin stop, 40 mM Hepes-KOH pH 8, 50 mM KCl, 0.5 mM DTT, 0.005% NP40, 50 uM ATP, 30 C, ~0.3 pmol DNA and 7 pmol RNAP in 200 uL, time course, native protein, label: 5'-32P on the Gen406 strand, probe letters rebuilt from the primers and the genome

Sequence: GTGCTGCGAAATCATCGGTGTAAATAGGGCTATATGCCGCGTCTTTTCTGGCTAATTTTATGAAAAGATATTTATTGGCGGCACAAAATAAAGAACAATTTTGAATTCCTTACATTCCTGGCTATTGCACAACTGAATTTAAGGCTCTATTATTACCTCAACAAACCACCCCAATATAAGTTTGAGATTACTACAATGAGCGAAGCACTTAAAATTCTGAA (double strand) [hns promoter fragment, 221 bp (-159 to +62)]
- binding result: binds more weakly

Construct, isoform or probe ends are uncertain for at least one entry. Weaker means in comparison with the reference protein, sequence or condition of that experiment.
